Results on two molecules are retold here after PMC10000680.

Protein sequences, listed by entry. Tags and fused reporters are not part of them.
UniProt P19338: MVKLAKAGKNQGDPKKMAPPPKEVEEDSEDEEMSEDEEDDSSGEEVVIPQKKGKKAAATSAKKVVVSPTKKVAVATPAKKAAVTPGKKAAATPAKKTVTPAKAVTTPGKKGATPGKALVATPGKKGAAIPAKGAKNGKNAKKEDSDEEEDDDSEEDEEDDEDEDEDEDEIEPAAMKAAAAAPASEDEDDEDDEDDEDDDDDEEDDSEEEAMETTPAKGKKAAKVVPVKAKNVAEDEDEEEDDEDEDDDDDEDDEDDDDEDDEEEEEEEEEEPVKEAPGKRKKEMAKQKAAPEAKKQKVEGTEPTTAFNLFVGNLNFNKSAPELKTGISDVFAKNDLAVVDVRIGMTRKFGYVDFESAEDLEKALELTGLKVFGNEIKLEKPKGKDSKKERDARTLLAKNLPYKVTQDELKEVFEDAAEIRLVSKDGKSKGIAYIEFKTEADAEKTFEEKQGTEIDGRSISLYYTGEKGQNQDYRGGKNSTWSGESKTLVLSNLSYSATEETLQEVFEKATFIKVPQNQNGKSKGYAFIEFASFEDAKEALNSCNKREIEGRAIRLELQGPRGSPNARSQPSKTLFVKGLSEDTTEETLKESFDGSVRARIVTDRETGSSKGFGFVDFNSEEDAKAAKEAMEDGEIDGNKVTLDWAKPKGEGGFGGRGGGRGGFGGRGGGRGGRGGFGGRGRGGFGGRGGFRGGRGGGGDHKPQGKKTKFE
UniProt Q9UKV8: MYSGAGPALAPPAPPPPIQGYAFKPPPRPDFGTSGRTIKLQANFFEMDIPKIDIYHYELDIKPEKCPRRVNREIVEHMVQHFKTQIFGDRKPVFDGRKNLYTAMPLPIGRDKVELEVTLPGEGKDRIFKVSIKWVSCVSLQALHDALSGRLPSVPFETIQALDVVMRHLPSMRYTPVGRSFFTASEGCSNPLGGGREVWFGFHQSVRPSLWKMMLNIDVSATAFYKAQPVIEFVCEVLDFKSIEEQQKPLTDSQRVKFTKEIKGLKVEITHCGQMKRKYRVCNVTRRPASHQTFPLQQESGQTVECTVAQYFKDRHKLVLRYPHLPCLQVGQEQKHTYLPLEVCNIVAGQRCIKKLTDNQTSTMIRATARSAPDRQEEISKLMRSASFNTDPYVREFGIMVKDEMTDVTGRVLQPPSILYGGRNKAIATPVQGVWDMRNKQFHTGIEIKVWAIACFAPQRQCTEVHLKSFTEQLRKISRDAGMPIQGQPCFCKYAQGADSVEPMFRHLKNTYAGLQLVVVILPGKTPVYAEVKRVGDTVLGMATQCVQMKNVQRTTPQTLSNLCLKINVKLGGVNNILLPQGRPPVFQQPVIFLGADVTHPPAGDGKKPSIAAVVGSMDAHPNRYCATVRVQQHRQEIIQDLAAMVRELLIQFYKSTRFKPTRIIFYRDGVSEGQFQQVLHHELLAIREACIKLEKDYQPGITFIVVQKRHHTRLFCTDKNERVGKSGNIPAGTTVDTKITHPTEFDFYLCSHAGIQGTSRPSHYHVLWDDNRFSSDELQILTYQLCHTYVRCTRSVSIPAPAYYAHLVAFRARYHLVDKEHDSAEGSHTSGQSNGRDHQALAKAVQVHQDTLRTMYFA

This test concerns the target nucleolin (NCL) (human (endogenous in PASMCs)) (UniProt P19338). As to the kind of experiment: co-IP; endogenous proteins in PASMC lysate (20 mM Tris-HCl pH 7.5, 100 mM KCl, 5 mM MgCl2, 0.5% NP-40), precleared; Dynabeads Protein G coated with anti-NCL antibody or rabbit IgG, and conversely with anti-DGCR8 or anti-Ago2 antibody or mouse IgG, 4 °C overnight; washed with NT2 buffer (150 mM NaCl); immunoblot. On the technique in general: A western blot detects proteins with antibodies after separation by electrophoresis.

These are yes or no findings as the source states them, for the method shown. In cells and extracts the contact can be indirect. Some results given as binding are weak or reduced against the parent protein; the word gives no strength.

With Ago2 (from UniProt Q9UKV8 1-859), the binding result was “binds”.

B1: DGCR8 (protein, UniProt Q8WYQ5 1-773)
chain: METDESPSPLPCGPAGEAVMESRARPFQALPREQSPPPPLQTSSGAEVMDVGSGGDGQSELPAEDPFNFYGASLLSKGSFSKGRLLIDPNCSGHSPRTARHAPAVRKFSPDLKLLKDVKISVSFTESCRSKDRKVLYTGAERDVRAECGLLLSPVSGDVHACPFGGSVGDGVGIGGESADKKDEENELDQEKRVEYAVLDELEDFTDNLELDEEGAGGFTAKAIVQRDRVDEEALNFPYEDDFDNDVDALLEEGLCAPKKRRTEEKYGGDSDHPSDGETSVQPMMTKIKTVLKSRGRPPTEPLPDGWIMTFHNSGVPVYLHRESRVVTWSRPYFLGTGSIRKHDPPLSSIPCLHYKKMKDNEEREQSSDLTPSGDVSPVKPLSRSAELEFPLDEPDSMGADPGPPDEKDPLGAEAAPGALGQVKAKVEVCKDESVDLEEFRSYLEKRFDFEQVTVKKFRTWAERRQFNREMKRKQAESERPILPANQKLITLSVQDAPTKKEFVINPNGKSEVCILHEYMQRVLKVRPVYNFFECENPSEPFGASVTIDGVTYGSGTASSKKLAKNKAARATLEILIPDFVKQTSEEKPKDSEELEYFNHISIEDSRVYELTSKAGLLSPYQILHECLKRNHGMGDTSIKFEVVPGKNQKSEYVMACGKHTVRGWCKNKRVGKQLASQKILQLLHPHVKNWGSLLRMYGRESSKMVKQETSDKSVIELQQYAKKNKPNLHILSKLQEEMKRLAEEREETRKKPKMSIVASAQPGGEPLCTVDV
As for B1, the binding entry is “binds”.
